# The other results are listed elsewhere or left out.
# B1: CALR truncated at D342 (Homo sapiens) (protein)
# chain: EPAVYFKEQFLDGDGWTSRWIESKHKSDFGKFVLSSGKFYGDEEKDKGLQTSQDARFYALSASFEPFSNKGQTLVVQFTVKHEQNIDCGGGYVKLFPNSLDQTDMHGDSEYNIMFGPDICGPGTKKVHVIFNYKGKNVLINKDIRCKDDEFTHLYTLIVRPDNTYEVKIDNSQVESGSLEDDWDFLPPKKIKDPDASKPEDWDERAKIDDPTDSKPEDWDKPEHIPDPDAKKPEDWDEEMDGEWEPPVIQNPEYKGEWKPRQIDNPDYKGTWIHPEIDNPEYSPDPSIYAYDNFGVLGLDLWQVKSGTIFDNFLITNDEAYAEEFGNETWGVTKAAEKQMKD
# Key:
# Assay in all cases: glycan array binding signal (z-score within array); higher = stronger binding
# Conditions in all cases: glycan notation: IUPAC condensed, linker removed
# [1] = target: Neu5Ac(a2-6)Gal(b1-4)GlcNAc(b1-2)Man(a1-3)[Man(a1-6)]Man(b1-4)GlcNAc(b1-4)GlcNAc
# Method in brief: (§1)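 Columns mapping to the same glycan were averaged after glycan names were converted to IUPAC-condensed notation. The data come from 3228 arrays in the Consortium for Functional Glycomics database, limited to those with an available protein sequence. Binding is reported as a within-array Z-score averaged across arrays of one protein sequence and across linkers.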
# [2] = target: Neu5Ac(a2-6)Gal(b1-4)GlcNAc(b1-2)Man(a1-3)[Neu5Ac(a2-6)Gal(b1-4)GlcNAc(b1-2)Man(a1-6)]Man(b1-4)GlcNAc(b1-4)GlcNAc
# Method in brief: as §1
# [3] = target: Neu5Ac(a2-6)Gal(b1-4)GlcNAc(b1-2)Man(a1-3)[Neu5Ac(a2-6)Gal(b1-4)GlcNAc(b1-2)Man(a1-6)]Man(b1-4)GlcNAc(b1-4)[Fuc(a1-6)]GlcNAc
# Method in brief: as §1
# [4] = target: Neu5Ac(a2-6)Gal(b1-4)GlcNAc(b1-2)Man(a1-6)Man(b1-4)GlcNAc(b1-4)GlcNAc
# Method in brief: as §1
# [5] = target: Neu5Ac(a2-6)Gal(b1-4)GlcNAc(b1-2)Man(a1-6)[Gal(b1-4)GlcNAc(b1-2)Man(a1-3)]Man(b1-4)GlcNAc(b1-4)GlcNAc
# Method in brief: as §1
# [6] = target: Neu5Ac(a2-6)Gal(b1-4)GlcNAc(b1-2)Man(a1-6)[GlcNAc(b1-2)Man(a1-3)]Man(b1-4)GlcNAc(b1-4)GlcNAc
# Method in brief: as §1
# [7] = target: Neu5Ac(a2-6)Gal(b1-4)GlcNAc(b1-2)Man(a1-6)[Man(a1-3)]Man(b1-4)GlcNAc(b1-4)GlcNAc
# Method in brief: as §1
# [8] = target: Neu5Ac(a2-6)Gal(b1-4)GlcNAc(b1-3)Gal(b1-3)GlcNAc
# Method in brief: as §1
# [9] = target: Neu5Ac(a2-6)Gal(b1-4)GlcNAc(b1-3)Gal(b1-4)GlcNAc
# Method in brief: as §1
# [10] = target: Neu5Ac(a2-6)Gal(b1-4)GlcNAc(b1-3)Gal(b1-4)GlcNAc(b1-3)Gal(b1-4)GlcNAc
# Method in brief: as §1
# [11] = target: Neu5Ac(a2-6)Gal(b1-4)GlcNAc(b1-3)Gal(b1-4)[Fuc(a1-3)]GlcNAc(b1-3)Gal(b1-4)[Fuc(a1-3)]GlcNAc
# Method in brief: as §1
# [12] = target: Neu5Ac(a2-6)Gal(b1-4)GlcNAc(b1-3)GalNAc
# Method in brief: as §1
# [13] = target: Neu5Ac(a2-6)Gal(b1-4)GlcNAc(b1-3)[Neu5Ac(a2-6)Gal(b1-4)GlcNAc(b1-6)]GalNAc
# Method in brief: as §1
# [14] = target: Neu5Ac(a2-6)Gal(b1-4)GlcNAc(b1-6)GalNAc
# Method in brief: as §1
# [15] = target: Neu5Ac(a2-6)Gal(b1-4)GlcNAc(b1-6)[Gal(b1-3)GlcNAc(b1-3)]Gal(b1-4)Glc
# Method in brief: as §1
# [16] = target: Neu5Ac(a2-6)Gal(b1-4)GlcNAc6S
# Method in brief: as §1
# Neu5Ac(a2-6)GalNAc = target: Neu5Ac(a2-6)GalNAc
# Method in brief: as §1
# [17] = target: Neu5Ac(a2-6)GalNAc(b1-4)GlcNAc
# Method in brief: as §1
# [18] = target: Neu5Ac(a2-6)GalNAc(b1-4)GlcNAc6S
# Method in brief: as §1
# [19] = target: Neu5Ac(a2-6)GlcNAc(b1-4)GlcNAc
# Method in brief: as §1
# [20] = target: Neu5Ac(a2-6)GlcNAc(b1-4)GlcNAc(b1-4)GlcNAc
# Method in brief: as §1
# Neu5Ac(a2-8)Neu5Ac = target: Neu5Ac(a2-8)Neu5Ac
# Method in brief: as §1
# [21] = target: Neu5Ac(a2-8)Neu5Ac(a2-3)Gal(b1-3)GalNAc(b1-4)[Neu5Ac(a2-8)Neu5Ac(a2-3)]Gal(b1-4)Glc
# Method in brief: as §1
# [22] = target: Neu5Ac(a2-8)Neu5Ac(a2-3)Gal(b1-4)Glc
# Method in brief: as §1
# [23] = target: Neu5Ac(a2-8)Neu5Ac(a2-3)[Gal(b1-3)GalNAc(b1-4)]Gal(b1-4)Glc
# Method in brief: as §1
# [24] = target: Neu5Ac(a2-8)Neu5Ac(a2-3)[GalNAc(b1-4)]Gal(b1-4)Glc
# Method in brief: as §1
# [25] = target: Neu5Ac(a2-8)Neu5Ac(a2-8)Neu5Ac
# Method in brief: as §1
# [26] = target: Neu5Ac(a2-8)Neu5Ac(a2-8)Neu5Ac(a2-3)Gal(b1-4)Glc
# Method in brief: as §1
# [27] = target: Neu5Ac(a2-8)Neu5Ac(a2-8)Neu5Ac(a2-3)[GalNAc(b1-4)]Gal(b1-4)Glc
# Method in brief: as §1
# [28] = target: Neu5Ac(a2-8)Neu5Ac(a2-8)Neu5Ac(a2-8)Neu5Ac(a2-3)[GalNAc(b1-4)]Gal(b1-4)Glc
# Method in brief: as §1
# [29] = target: Neu5Ac(b2-6)Gal(b1-4)GlcNAc
# Method in brief: as §1
# Neu5Ac(b2-6)GalNAc = target: Neu5Ac(b2-6)GalNAc
# Method in brief: as §1
# [30] = target: Neu5Ac9Ac(a2-3)Gal(b1-3)GlcNAc
# Method in brief: as §1
# [31] = target: Neu5Ac9Ac(a2-3)Gal(b1-4)GlcNAc
# Method in brief: as §1
# [32] = target: Neu5Ac9Ac(a2-6)Gal(b1-4)GlcNAc
# Method in brief: as §1
# [33] = target: Neu5Gc(a2-3)Gal(b1-3)GlcNAc
# Method in brief: as §1
# [34] = target: Neu5Gc(a2-3)Gal(b1-3)[Fuc(a1-4)]GlcNAc
# Method in brief: as §1
# Neu5Gc(a2-3)Gal(b1-4)Glc = target: Neu5Gc(a2-3)Gal(b1-4)Glc
# Method in brief: as §1
# [35] = target: Neu5Gc(a2-3)Gal(b1-4)GlcNAc
# Method in brief: as §1
# [36] = target: Neu5Gc(a2-3)Gal(b1-4)[Fuc(a1-3)]GlcNAc
# Method in brief: as §1
# [37] = target: Neu5Gc(a2-6)Gal(b1-4)GlcNAc
# Method in brief: as §1
# Neu5Gc(a2-6)GalNAc = target: Neu5Gc(a2-6)GalNAc
# Method in brief: as §1
# [38] = target: Neu5Gc(b2-6)Gal(b1-4)GlcNAc
# Method in brief: as §1
binder,measurement,setting,value
B1,glycan array binding signal (z-score),[1],-1.83
same,glycan array binding signal (z-score),[2],0.126
same,glycan array binding signal (z-score),[3],0.642
same,glycan array binding signal (z-score),[4],-1.06
same,glycan array binding signal (z-score),[5],3.22
same,glycan array binding signal (z-score),[6],-1.48
same,glycan array binding signal (z-score),[7],-0.245
same,glycan array binding signal (z-score),[8],1.64
same,glycan array binding signal (z-score),[9],1.39
same,glycan array binding signal (z-score),[10],-0.623
same,glycan array binding signal (z-score),[11],0.139
same,glycan array binding signal (z-score),[12],-1.36
same,glycan array binding signal (z-score),[13],0.163
same,glycan array binding signal (z-score),[14],2.17
same,glycan array binding signal (z-score),[15],-0.457
same,glycan array binding signal (z-score),[16],0.119
same,glycan array binding signal (z-score),Neu5Ac(a2-6)GalNAc,-0.893
same,glycan array binding signal (z-score),[17],0.431
same,glycan array binding signal (z-score),[18],-1.16
same,glycan array binding signal (z-score),[19],-0.513
same,glycan array binding signal (z-score),[20],0.867
same,glycan array binding signal (z-score),Neu5Ac(a2-8)Neu5Ac,0.485
same,glycan array binding signal (z-score),[21],-1.36
same,glycan array binding signal (z-score),[22],-1.42
same,glycan array binding signal (z-score),[23],0.351
same,glycan array binding signal (z-score),[24],1.69
same,glycan array binding signal (z-score),[25],-0.607
same,glycan array binding signal (z-score),[26],2.14
same,glycan array binding signal (z-score),[27],-0.341
same,glycan array binding signal (z-score),[28],-0.302
same,glycan array binding signal (z-score),[29],0.129
same,glycan array binding signal (z-score),Neu5Ac(b2-6)GalNAc,-1.37
same,glycan array binding signal (z-score),[30],-0.862
same,glycan array binding signal (z-score),[31],-0.26
same,glycan array binding signal (z-score),[32],0.064
same,glycan array binding signal (z-score),[33],-0.728
same,glycan array binding signal (z-score),[34],1.46
same,glycan array binding signal (z-score),Neu5Gc(a2-3)Gal(b1-4)Glc,-0.957
same,glycan array binding signal (z-score),[35],-0.425
same,glycan array binding signal (z-score),[36],-0.648
same,glycan array binding signal (z-score),[37],0.573
same,glycan array binding signal (z-score),Neu5Gc(a2-6)GalNAc,-1.52
same,glycan array binding signal (z-score),[38],-0.299

# Rewritten with bars between the fields: entries from further up
binder | measurement | setting | value
B1 | glycan array binding signal (z-score) | [4] | -1.06
same | glycan array binding signal (z-score) | [5] | 3.22

# — the supplement of paper PMC8728848
